In patent publication US6638943B2 (The University of Tennessee Research Foundation, priority 2001, dated 2003):
Structures were worked out from names or drawings and are uncertain.

The chains behind the UniProt entries cited, without tags or fusion partners.
UniProt P08913, whole entry: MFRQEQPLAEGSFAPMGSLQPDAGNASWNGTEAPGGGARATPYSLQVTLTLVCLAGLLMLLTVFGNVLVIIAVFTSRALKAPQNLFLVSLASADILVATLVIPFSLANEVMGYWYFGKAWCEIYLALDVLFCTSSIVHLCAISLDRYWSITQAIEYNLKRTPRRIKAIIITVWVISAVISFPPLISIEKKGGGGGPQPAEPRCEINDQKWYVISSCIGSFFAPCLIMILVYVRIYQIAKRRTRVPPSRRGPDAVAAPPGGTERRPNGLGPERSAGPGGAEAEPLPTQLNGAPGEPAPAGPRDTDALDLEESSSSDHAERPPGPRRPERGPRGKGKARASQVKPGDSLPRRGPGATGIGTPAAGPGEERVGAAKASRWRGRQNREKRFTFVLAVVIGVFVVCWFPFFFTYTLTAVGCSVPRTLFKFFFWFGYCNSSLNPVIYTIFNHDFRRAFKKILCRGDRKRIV

Biological target: human α2a-AR (Homo sapiens, UniProt P08913)
Assay: [3H]Rauwolscine equilibrium competition binding, human α2a-AR expressed in CHO cells
Details: Table 1, ratio of Ki values; tested form: 2HCl, 2.5H2O

O=C(NCCCCCCCCCCCCNC(=O)[C@@H]1[C@H]2C[C@H]3c4[nH]c5ccccc5c4CCN3C[C@@H]2CC[C@@H]1O)[C@@H]1[C@H]2C[C@H]3c4[nH]c5ccccc5c4CCN3C[C@@H]2CC[C@@H]1O
α2a/α2b Selectivity = Ki(α2b)/Ki(α2a): 15.7
